The assay deals with GABAAR α1 subunit (mouse (endogenous in mouse brain)) (UniProt P62812). The assay is described as follows: co-IP; immunoisolation from the membrane fraction (P100) of mouse hippocampi, buffer without detergent (Tris-HCl 20 mM, HEPES 10 mM, NaCl 150 mM, sucrose 250 mM, EDTA 0.5 mM), Dynabeads Protein A coupled with rabbit anti-EndoA1 or rabbit anti-GABAAR α1; immunoblotting; also from Sh3gl2+/+ and Sh3gl2-/- brains.

The chains behind the UniProt entries cited, without tags or fusion partners. Residues count along the entry.
UniProt P62812, residues 28-455: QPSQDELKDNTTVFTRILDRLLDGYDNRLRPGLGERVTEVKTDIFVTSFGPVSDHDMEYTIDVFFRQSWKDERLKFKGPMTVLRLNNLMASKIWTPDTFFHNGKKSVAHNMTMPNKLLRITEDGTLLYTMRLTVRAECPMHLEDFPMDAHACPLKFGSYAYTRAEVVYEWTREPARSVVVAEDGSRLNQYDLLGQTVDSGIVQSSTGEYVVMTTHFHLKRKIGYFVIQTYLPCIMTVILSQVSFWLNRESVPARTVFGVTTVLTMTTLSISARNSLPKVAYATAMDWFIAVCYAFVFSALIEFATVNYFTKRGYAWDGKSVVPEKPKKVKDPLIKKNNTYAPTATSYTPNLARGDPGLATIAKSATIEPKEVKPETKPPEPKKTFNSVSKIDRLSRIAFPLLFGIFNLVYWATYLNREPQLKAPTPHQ
UniProt Q69ZK9, residues 15-836: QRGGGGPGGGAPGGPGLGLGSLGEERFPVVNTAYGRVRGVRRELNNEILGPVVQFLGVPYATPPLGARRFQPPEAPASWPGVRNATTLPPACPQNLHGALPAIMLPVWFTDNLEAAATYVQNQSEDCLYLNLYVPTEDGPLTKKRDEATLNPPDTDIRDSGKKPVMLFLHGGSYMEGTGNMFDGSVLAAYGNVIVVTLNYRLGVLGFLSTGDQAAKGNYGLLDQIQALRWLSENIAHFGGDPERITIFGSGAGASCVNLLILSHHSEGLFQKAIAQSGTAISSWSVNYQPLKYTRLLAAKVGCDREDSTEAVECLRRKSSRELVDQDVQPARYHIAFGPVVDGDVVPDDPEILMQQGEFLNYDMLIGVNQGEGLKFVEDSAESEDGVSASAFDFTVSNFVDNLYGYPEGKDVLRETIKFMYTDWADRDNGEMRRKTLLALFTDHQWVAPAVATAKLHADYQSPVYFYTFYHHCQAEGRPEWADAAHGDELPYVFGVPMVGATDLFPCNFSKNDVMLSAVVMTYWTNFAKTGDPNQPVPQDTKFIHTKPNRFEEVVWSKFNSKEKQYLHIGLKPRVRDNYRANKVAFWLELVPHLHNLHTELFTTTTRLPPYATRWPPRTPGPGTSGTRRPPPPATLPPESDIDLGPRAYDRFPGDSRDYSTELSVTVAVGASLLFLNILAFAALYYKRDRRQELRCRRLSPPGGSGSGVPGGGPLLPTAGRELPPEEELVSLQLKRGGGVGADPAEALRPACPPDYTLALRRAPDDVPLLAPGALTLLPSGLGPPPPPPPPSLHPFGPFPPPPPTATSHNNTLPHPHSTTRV

This passage reports binding results from article PMC12490859.

Results are given in words; binding and its absence hold for the method and conditions named. Binding seen in cells or lysates may run through a third protein. Some entries that bind do so weakly or less than the wild type.

In the case of “neuroligin-2 (from UniProt Q69ZK9 15-836)”, the binding entry is “binds”.
